Test results taken from PubChem BioAssay AID200 (DTP/NCI, 2004).
The list shows only some results of the screen, not a fair sample: it gathers tests that were run many times, whatever their T/C, doses with no T/C, and many T/C values between a quarter and a half above the control. Further doses and runs are listed elsewhere. T/C: endpoint of the treated group in % of that of the vehicle group. Some entries give survivors of the animals treated and no T/C: the source files T/C as zero there, which appears to mark a toxic dose or a test without result, not a measured value. Some survivor counts are full or nearly so, which does not show that the dose was tolerated: the source hardly ever lists a survival T/C far under the control, and the zero likely stands for such cases as well. Counts of survivors are from the toxicity check (mostly the fifth day) where no day follows; animals may have died later. Schedule codes are those of the source, taken here to give the interval after Q, in days (D) or hours (H), and the number of doses after X. Some entries were tested several times; the results are listed from low to high. Where survival is the endpoint, this PubChem deposit counts one and a half times the control or more as active, and values a quarter to a half above the control carry no call in these data; other NCI protocols may use other cut-offs. Some T/C values carry the count of animals alive at the toxicity check (mostly the fifth day); where none is given, no animal had died by that day.

System: B6C3F1 mice, B16 melanoma ip, median survival T/C
Test: NCI In Vivo Anticancer Drug Screen. Data for tumor model B16 Melanoma (intraperitoneal) in B6C3F1 mice
Conditions: T/C endpoint: median survival time, higher T/C = longer survival
Method in brief: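 Mice bearing transplanted tumor were dosed with compound or vehicle, and survival was recorded. Activity is expressed as the treated-group measurement (T) divided by the vehicle control measurement (C).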

[1] = dose: 25.0 mg/kg/injection, schedule: Q01DX009 (ip), vehicle: saline with Tween-80
[2] = dose: 200.0 mg/kg/injection, schedule: Q01DX009 (ip), vehicle: saline with Tween-80
[3] = dose: 400.0 mg/kg/injection, schedule: Q01DX009 (ip), vehicle: Klucel (hydroxypropylcellulose) (HPC)
[4] = dose: 25.0 mg/kg/injection, schedule: Q01DX009 (ip), vehicle: saline
[5] = dose: 50.0 mg/kg/injection, schedule: Q01DX009 (ip), vehicle: saline
[6] = dose: 200.0 mg/kg/injection, schedule: Q01DX009 (ip), vehicle: Klucel (hydroxypropylcellulose) (HPC)

## O=NN(CCCl)C(=O)NCCCl
dose: 1.5 mg/kg/injection, schedule: Q01DX009 (ip), vehicle: saline + alcohol
  T/C: 113, 118, 119, 121 % of control
dose: 3.0 mg/kg/injection, schedule: Q01DX009 (ip), vehicle: alcohol
  T/C: 129 and 135 % of control
dose: 3.0 mg/kg/injection, schedule: Q01DX009 (ip), vehicle: saline + alcohol
  T/C: 114, 118, 125, 138 % of control [7 of 8 alive]
dose: 5.0 mg/kg/injection, schedule: Q01DX005 (ip), vehicle: saline + alcohol
  T/C: 138 % of control
dose: 6.0 mg/kg/injection, schedule: Q01DX009 (ip), vehicle: saline + alcohol
  T/C: 148, 157, 159, 164 % of control
dose: 10.0 mg/kg/injection, schedule: Q01DX005 (ip), vehicle: saline + alcohol
  T/C: 127 % of control
dose: 12.0 mg/kg/injection, schedule: Q01DX009 (ip), vehicle: alcohol
  survivor count: 9 of 10 and 10 of 10
dose: 12.0 mg/kg/injection, schedule: Q01DX009 (ip), vehicle: saline + alcohol
  T/C: 109 [9 of 10 alive], 113, 172 [9 of 10 alive], 193 % of control
dose: 15.0 mg/kg/injection, schedule: Q01DX001 (ip), vehicle: saline
  T/C: 137 % of control [6 of 7 alive]
dose: 20.0 mg/kg/injection, schedule: Q01DX001 (iv), vehicle: saline + alcohol
  T/C: 129 % of control
dose: 20.0 mg/kg/injection, schedule: Q01DX005 (ip), vehicle: saline + alcohol
  survivor count: 10 of 10
dose: 20.0 mg/kg/injection, schedule: Q01DX005 (iv), vehicle: saline + alcohol
  survivor count: 10 of 10
dose: 24.0 mg/kg/injection, schedule: Q01DX009 (ip), vehicle: alcohol
  survivor count: 10 of 10
dose: 24.0 mg/kg/injection, schedule: Q01DX009 (ip), vehicle: other
  survivor count: 9 of 10
dose: 24.0 mg/kg/injection, schedule: Q01DX009 (ip), vehicle: saline + alcohol
  survivor count: 9 of 10, 10 of 10, 8 of 8
dose: 32.0 mg/kg/injection, schedule: Q01DX001 (ip), vehicle: saline
  T/C: 148 % of control
dose: 40.0 mg/kg/injection, schedule: Q01DX005 (ip), vehicle: saline + alcohol
  survivor count: 10 of 10
dose: 40.0 mg/kg/injection, schedule: Q01DX005 (iv), vehicle: saline + alcohol
  survivor count: 10 of 10
dose: 80.0 mg/kg/injection, schedule: Q01DX001 (ip), vehicle: saline + alcohol
  survivor count: 9 of 10
dose: 80.0 mg/kg/injection, schedule: Q01DX001 (iv), vehicle: saline + alcohol
  survivor count: 10 of 10

## COc1cc2c(c(OC)c1OC)-c1ccc(OC)c(=O)cc1[C@@H](NC(=O)CCl)CC2
dose: 0.06 mg/kg/injection, schedule: Q01DX009 (ip), vehicle: saline with Tween-80
  T/C: 144 % of control
dose: 0.5 mg/kg/injection, schedule: Q01DX009 (ip), vehicle: saline with Tween-80
  T/C: 131 % of control [9 of 10 alive]
dose: 1.0 mg/kg/injection, schedule: Q01DX009 (ip), vehicle: saline with Tween-80
  survivor count: 6 of 10

## COc1cc(C2c3cc4c(cc3C(O)C(CO)C2CO)OCO4)cc(OC)c1OC (configuration not stated)
[1]
  T/C: 129 % of control
dose: 50.0 mg/kg/injection, schedule: Q01DX009 (ip), vehicle: saline with Tween-80
  T/C: 131 % of control
[2]
  survivor count: 10 of 10
dose: 400.0 mg/kg/injection, schedule: Q01DX009 (ip), vehicle: saline with Tween-80
  survivor count: 5 of 8 and 10 of 10

## CC1Nc2ccccc2NC1C (configuration not stated)
[2]
  survivor count: 6 of 10

## CCCCNC(C)[C@]1(O)Cc2c(O)c3c(c(O)c2[C@@H](OC2CC(N)C(O)C(C)O2)C1)C(=O)c1c(OC)cccc1C3=O (some centres not stated)
dose: 0.38 mg/kg/injection, schedule: Q01DX009 (ip), vehicle: saline
  T/C: 132 % of control
dose: 12.0 mg/kg/injection, schedule: Q01DX009 (ip), vehicle: saline
  survivor count: 10 of 10 and 9 of 9

## CC1C(c2ccccc2)OC(N2CCOCC2)C(C)(C)CN1C (configuration not stated)
dose: 800.0 mg/kg/injection, schedule: Q01DX009 (ip), vehicle: saline with Tween-80
  survivor count: 1 of 10

## CC(C)(C)Oc1ccc(CC(NC(=O)OCC2c3ccccc3-c3ccccc32)C(=O)O)cc1 (configuration not stated)
[3]
  survivor count: 0 of 10

## NC(=O)c1c[se]c(C2OC(CO)C(O)C2O)n1 (configuration not stated)
dose: 200.0 mg/kg/injection, schedule: Q01DX009 (ip), vehicle: water
  survivor count: 10 of 10

## O=C(O)[C@H](Cc1ccccc1)N1C(=O)c2ccccc2C1=O
dose: 400.0 mg/kg/injection, schedule: Q01DX009 (ip), vehicle: DMSO
  survivor count: 9 of 10

## Nc1ncnc2c1ncn2C1OC(CO)C(O)C1O (configuration not stated)
[4]
  survivor count: 10 of 10
[5]
  survivor count: 8 of 10
dose: 100.0 mg/kg/injection, schedule: Q01DX009 (ip), vehicle: saline
  survivor count: 8 of 10

## NC(=O)/C=C/C(=O)c1c(Cl)cccc1Cl
dose: 6.25 mg/kg/injection, schedule: Q01DX009 (ip), vehicle: saline with Tween-80
  survivor count: 10 of 10
dose: 12.5 mg/kg/injection, schedule: Q01DX009 (ip), vehicle: saline with Tween-80
  survivor count: 7 of 10
[1]
  survivor count: 2 of 10

## CCN(CC)CC[n+]1ccc2c(C)c3[nH]c4ccc(O)cc4c3c(C)c2c1
dose: 1.56 mg/kg/injection, schedule: Q01DX009 (ip), vehicle: saline
  T/C: 132 and 140 % of control
dose: 1.56 mg/kg/injection, schedule: Q01DX009 (ip), vehicle: suspension in saline
  T/C: 140 % of control
dose: 3.12 mg/kg/injection, schedule: Q01DX009 (ip), vehicle: saline
  T/C: 148 % of control
dose: 3.12 mg/kg/injection, schedule: Q01DX009 (ip), vehicle: suspension in saline
  T/C: 142 % of control
dose: 12.5 mg/kg/injection, schedule: Q01DX009 (ip), vehicle: saline
  survivor count: 8 of 8
dose: 12.5 mg/kg/injection, schedule: Q01DX009 (ip), vehicle: suspension in saline
  survivor count: 10 of 10
[4]
  survivor count: 8 of 8
dose: 25.0 mg/kg/injection, schedule: Q01DX009 (ip), vehicle: suspension in saline
  survivor count: 10 of 10
[5]
  survivor count: 2 of 8
dose: 50.0 mg/kg/injection, schedule: Q01DX009 (ip), vehicle: suspension in saline
  survivor count: 10 of 10

## COC1C(CO)OC(n2cnc3c(=S)nc(N)[nH]c32)C1O (configuration not stated)
[6]
  survivor count: 10 of 10
[3]
  survivor count: 10 of 10

## O=C(O)c1cc(C(=O)O)c(C(=O)O)cc1C(=O)O.[NH2-].[NH2-].[NH2-].[NH2-].[Pt+2].[Pt+2]
dose: 4.0 mg/kg/injection, schedule: Q01DX009 (ip), vehicle: water
  T/C: 134 % of control

## Cc1c2cc[n+](CCO)cc2c(C)c2c1[nH]c1ccc(O)cc12
dose: 1.25 mg/kg/injection, schedule: Q01DX009 (ip), vehicle: saline
  survivor count: 9 of 9
dose: 2.5 mg/kg/injection, schedule: Q01DX009 (ip), vehicle: saline
  survivor count: 8 of 8
dose: 5.0 mg/kg/injection, schedule: Q01DX009 (ip), vehicle: saline
  survivor count: 7 of 8
dose: 10.0 mg/kg/injection, schedule: Q01DX009 (ip), vehicle: saline
  survivor count: 3 of 8

## CCOC(=O)CNC(=O)Sc1ccc(C(C)(C)C)cc1
[3]
  survivor count: 0 of 9

## CC(C)CC(=O)NC(C(=O)NC(C(=O)NC(CC(C)C)C(O)CC(=O)NC(C)C(=O)NC(CC(C)C)C(O)CC(=O)O)C(C)C)C(C)C (configuration not stated)
dose: 100.0 mg/kg/injection, schedule: Q01DX009 (ip), vehicle: Klucel (hydroxypropylcellulose) (HPC)
  survivor count: 10 of 10
[6]
  survivor count: 10 of 10

## Cc1[nH]ccc2c(C)c3nc4ccccc4c3cc12
dose: 12.5 mg/kg/injection, schedule: Q01DX009 (ip), vehicle: Klucel (hydroxypropylcellulose) (HPC)
  T/C: 132 % of control [9 of 10 alive]
dose: 50.0 mg/kg/injection, schedule: Q01DX009 (ip), vehicle: Klucel (hydroxypropylcellulose) (HPC)
  survivor count: 10 of 10
